The list does not hold the whole screen: it gathers some chemical classes. Not every dose and run of a compound is shown. T/C is the treated group as % of the vehicle group. Some entries give survivors of the animals treated and no T/C: the source holds a T/C of zero for them, seemingly a mark for toxic or unscored doses. Some doses without a T/C left all or most animals alive at the check, yet need not have been tolerated: survival well below the control is almost never listed, so the zero probably covers shortened survival too. Survivors were counted at the toxicity check, usually on the fifth day, unless a day is given; later deaths do not show. Schedules are NCI's codes, taken here to give the interval after Q, in days (D) or hours (H), and the number of doses after X. Some entries were tested several times; the results are listed from low to high. For survival time, the PubChem record calls one and a half times the control and up active, and a quarter to a half above the control has no call in these data; cut-offs in other NCI protocols can differ. Some T/C values are marked as having no survivor count here; that says nothing about deaths at the dose. Some T/C values are followed by the survivors on the day toxicity was checked, most often the fifth; without a count or a note in brackets, all were alive then.
Tested on: CD2F1 mice, L1210 leukemia ip, survival T/C
Experiment: NCI In Vivo Anticancer Drug Screen. Data for tumor model L1210 Leukemia (intraperitoneal) in CD2F1 (CDF1) mice
Conditions: T/C endpoint: mean survival time, higher T/C = longer survival
Method in brief: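 In this screen, transplantable tumors were grown in mice given either the compound or its vehicle. Results were expressed as the treated measurement relative to the control measurement.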

[1] = dose: 75.0 mg/kg/injection, schedule: Q01DX001 (ip), vehicle: saline
[2] = dose: 150.0 mg/kg/injection, schedule: Q01DX001 (ip), vehicle: saline
[3] = dose: 300.0 mg/kg/injection, schedule: Q01DX001 (ip), vehicle: saline
[4] = dose: 64.0 mg/kg/injection, schedule: Q01DX009 (ip), vehicle: saline
[5] = dose: 200.0 mg/kg/injection, schedule: Q01DX001 (ip), vehicle: DMSO
[6] = dose: 400.0 mg/kg/injection, schedule: Q01DX001 (ip), vehicle: DMSO
[7] = dose: 100.0 mg/kg/injection, schedule: Q04DX002 (ip), vehicle: saline with Tween-80
[8] = dose: 200.0 mg/kg/injection, schedule: Q04DX002 (ip), vehicle: saline with Tween-80
[9] = dose: 400.0 mg/kg/injection, schedule: Q04DX002 (ip), vehicle: saline with Tween-80
[10] = dose: 75.0 mg/kg/injection, schedule: Q01DX001 (ip), vehicle: other
[11] = dose: 150.0 mg/kg/injection, schedule: Q01DX001 (ip), vehicle: other
[12] = dose: 300.0 mg/kg/injection, schedule: Q01DX001 (ip), vehicle: other

In the case of O=[N+]([O-])OCC1CO1 (stereo unspecified), the T/C [1] was 95 % of control [survivor count not shown], the T/C [2] was 93 % of control [survivor count not shown] and the T/C [3] was 96 % of control [survivor count not shown].

With C=CS(=O)(=O)C=C the T/C (dose: 0.25 mg/kg/injection, schedule: Q01DX009 (ip), vehicle: saline) was 100 % of control, the T/C (dose: 0.5 mg/kg/injection, schedule: Q01DX009 (ip), vehicle: saline) was 103 % of control and the T/C (dose: 1.0 mg/kg/injection, schedule: Q01DX009 (ip), vehicle: saline) was 103 % of control. For the same compound, the survivor count (dose: 5.0 mg/kg/injection, schedule: Q01DX009 (ip), vehicle: saline with Tween-80) was 1 of 6, the survivor count (dose: 10.0 mg/kg/injection, schedule: Q01DX009 (ip), vehicle: saline with Tween-80) was 0 of 6 and the survivor count (dose: 20.0 mg/kg/injection, schedule: Q01DX009 (ip), vehicle: saline with Tween-80) was 0 of 6.

In the case of CN(N=O)C(=N)N[N+](=O)[O-], the T/C (dose: 8.0 mg/kg/injection, schedule: Q01DX009 (ip), vehicle: saline) was 112 and 122 % of control, the T/C (dose: 10.0 mg/kg/injection, schedule: Q01DX007 (ip), vehicle: saline) was 127 % of control and the T/C (dose: 10.0 mg/kg/injection, schedule: Q01DX009 (ip), vehicle: saline) was 112 % of control. For the same compound, the T/C (dose: 10.0 mg/kg/injection, schedule: Q03DX003 (ip), vehicle: saline) was 122 % of control, the T/C (dose: 10.0 mg/kg/injection, schedule: Q04DX003 (ip), vehicle: saline) was 118 % of control and the T/C (dose: 16.0 mg/kg/injection, schedule: Q01DX009 (ip), vehicle: saline) was 123 and 147 % of control. For the same compound, the T/C (dose: 20.0 mg/kg/injection, schedule: Q01DX007 (ip), vehicle: saline) was 125 % of control, the T/C (dose: 20.0 mg/kg/injection, schedule: Q01DX009 (ip), vehicle: saline) was 131 % of control and the T/C (dose: 20.0 mg/kg/injection, schedule: Q03DX003 (ip), vehicle: saline) was 121 % of control. The T/C (dose: 20.0 mg/kg/injection, schedule: Q04DX003 (ip), vehicle: saline) was 120 % of control, the T/C (dose: 32.0 mg/kg/injection, schedule: Q01DX009 (ip), vehicle: saline) was 125 and 134 % of control and the survivor count (dose: 40.0 mg/kg/injection, schedule: Q01DX007 (ip), vehicle: saline) was 6 of 6. For the same compound, the T/C (dose: 40.0 mg/kg/injection, schedule: Q01DX009 (ip), vehicle: saline) was 90 % of control, the T/C (dose: 40.0 mg/kg/injection, schedule: Q03DX003 (ip), vehicle: saline) was 107 % of control and the T/C (dose: 40.0 mg/kg/injection, schedule: Q04DX003 (ip), vehicle: saline) was 134 % of control. The T/C [4] was 114 % of control [5 of 6 alive] and the survivor count [4] was 6 of 6.

For OC(Sc1ccc(Cl)cc1)C(Cl)(Cl)Cl (stereo unspecified), the T/C (dose: 100.0 mg/kg/injection, schedule: Q04DX003 (ip), vehicle: saline with Tween-80) was 97 % of control, the T/C (dose: 200.0 mg/kg/injection, schedule: Q04DX003 (ip), vehicle: saline with Tween-80) was 101 % of control and the T/C (dose: 400.0 mg/kg/injection, schedule: Q04DX003 (ip), vehicle: saline with Tween-80) was 92 % of control.

O=C(c1ccccc1[N+](=O)[O-])N(CCCl)CCCl was tested, and the T/C (dose: 50.0 mg/kg/injection, schedule: Q01DX009 (ip), vehicle: Klucel (hydroxypropylcellulose) (HPC)) was 100 % of control, the T/C (dose: 100.0 mg/kg/injection, schedule: Q01DX009 (ip), vehicle: Klucel (hydroxypropylcellulose) (HPC)) was 102 % of control and the T/C (dose: 200.0 mg/kg/injection, schedule: Q01DX009 (ip), vehicle: Klucel (hydroxypropylcellulose) (HPC)) was 96 % of control.

For NNP(=O)(OCc1ccccc1)N(CCCl)CCCl (stereo unspecified), the T/C (dose: 25.0 mg/kg/injection, schedule: Q01DX001 (ip), vehicle: DMSO) was 101 % of control, the T/C (dose: 50.0 mg/kg/injection, schedule: Q01DX001 (ip), vehicle: DMSO) was 94 % of control and the T/C (dose: 100.0 mg/kg/injection, schedule: Q01DX001 (ip), vehicle: DMSO) was 91 % of control. For the same compound, the T/C [5] was 95 % of control and the T/C [6] was 97 % of control.

In the case of COC(=O)C1(C)COP(=O)(N2CCCC2)OC1 (stereo unspecified), the T/C [1] was 107 % of control, the T/C [2] was 108 % of control and the T/C [3] was 103 % of control.

With Cc1ccc2c(c1)C[P+](c1ccccc1)(c1ccccc1)CCC2C.F[P-](F)(F)(F)(F)F (stereo unspecified) the T/C [7] was 98 % of control, the survivor count [8] was 2 of 3 and the survivor count [9] was 1 of 3.

For O=[N+]([O-])/N=C1\NN=CCC1N[N+](=O)[O-] (stereo unspecified), the T/C (dose: 100.0 mg/kg/injection, schedule: Q01DX001 (ip), vehicle: saline) was 97 % of control [survivor count not shown], the T/C (dose: 200.0 mg/kg/injection, schedule: Q01DX001 (ip), vehicle: saline) was 100 % of control [survivor count not shown] and the T/C (dose: 400.0 mg/kg/injection, schedule: Q01DX001 (ip), vehicle: saline) was 96 % of control [survivor count not shown].

For CCC(CC)NC(CC)CO.O=[N+]([O-])c1cc([N+](=O)[O-])c(O)c([N+](=O)[O-])c1, the T/C [10] was 101 % of control [survivor count not shown], the T/C [11] was 93 % of control [survivor count not shown] and the T/C [12] was 98 % of control [survivor count not shown].

CC(O)CNC1CCCCC1.O=[N+]([O-])c1cc([N+](=O)[O-])c(O)c([N+](=O)[O-])c1 was tested, and the T/C [10] was 89 % of control [survivor count not shown], the T/C [11] was 97 % of control [survivor count not shown] and the T/C [12] was 96 % of control [survivor count not shown].

In the case of N#CC(O)CCOP(N)(=O)N(CCCl)CCCl (stereo unspecified), the T/C (dose: 18.8 mg/kg/injection, schedule: Q01DX001 (ip), vehicle: DMSO) was 110 % of control, the T/C (dose: 25.0 mg/kg/injection, schedule: Q01DX001 (ip), vehicle: DMSO, evaluated on day 25) was 111 % of control and the T/C (dose: 25.0 mg/kg/injection, schedule: Q01DX001 (ip), vehicle: DMSO, evaluated on day 40) was 108 % of control. The T/C (dose: 37.5 mg/kg/injection, schedule: Q01DX001 (ip), vehicle: DMSO) was 117 % of control, the T/C (dose: 50.0 mg/kg/injection, schedule: Q01DX001 (ip), vehicle: DMSO, evaluated on day 25) was 127 % of control and the T/C (dose: 50.0 mg/kg/injection, schedule: Q01DX001 (ip), vehicle: DMSO, evaluated on day 40) was 123 % of control. For the same compound, the T/C (dose: 75.0 mg/kg/injection, schedule: Q01DX001 (ip), vehicle: DMSO) was 119 % of control, the T/C (dose: 100.0 mg/kg/injection, schedule: Q01DX001 (ip), vehicle: DMSO, evaluated on day 25) was 195 % of control [5 of 6 alive] and the T/C (dose: 100.0 mg/kg/injection, schedule: Q01DX001 (ip), vehicle: DMSO, evaluated on day 40) was 141 % of control. For the same compound, the T/C (dose: 150.0 mg/kg/injection, schedule: Q01DX001 (ip), vehicle: DMSO) was 138 % of control, the survivor count [5] was 0 of 6 and 3 of 6 and the survivor count [6] was 0 of 6.

F[P-](F)(F)(F)(F)F.c1ccc([C+](c2ccccc2)c2ccccc2)cc1 was tested, and the T/C [7] was 103 % of control, the T/C [8] was 92 % of control and the T/C [9] was 107 % of control.

In the case of COc1nccc2ccccc12.O=[N+]([O-])c1cc([N+](=O)[O-])c(O)c([N+](=O)[O-])c1, the T/C (dose: 100.0 mg/kg/injection, schedule: Q04DX003 (ip), vehicle: saline) was 97 % of control [survivor count not shown], the T/C (dose: 200.0 mg/kg/injection, schedule: Q04DX003 (ip), vehicle: saline) was 93 % of control [survivor count not shown] and the T/C (dose: 400.0 mg/kg/injection, schedule: Q04DX003 (ip), vehicle: saline) was 97 % of control [survivor count not shown].

For Cc1cc([N+](=O)[O-])ccc1[N+](=O)[O-], the T/C (dose: 100.0 mg/kg/injection, schedule: Q04DX003 (ip), vehicle: other) was 93 % of control [survivor count not shown].

— PubChem BioAssay AID256 (DTP/NCI, 2004)
